Assay results as given in patent US5939096A, “Liposome drug-loading method and composition” (priority 1997, dated 1999).

Legend:
[1] = Loading into calcium acetate liposomes monitored by fluorescence; conditions: FIG. 5A
[2] = Quantitation of compound loaded into acetate gradient liposomes (gel exclusion chromatography, Triton X-100 release); conditions: 15 minutes, 25° C., 0.1 mM initial external concentration

## 5(6)-carboxyfluorescein
[1]; aqueous calcium acetate, no gradient
  change in external concentration without transmembrane acetate gradient: no change in external concentration
[1]; aqueous sodium sulfate, acetate-loaded liposomes
  fluorescence decrease (uptake) with acetate gradient: a rapid decrease in fluorescence was observed

## CCn1cc(C(=O)O)c(=O)c2ccc(C)nc21 [nalidixic acid]
[2]
  internal concentration of nalidixic acid: about 1 mM
[2]; FIG. 6B
  liposome-associated fraction of total fluorescence: seventy two
